Assay results reported in patent US10538567B2, “Compounds as peptidic trigonal GLP1/glucagon/GIP receptor agonists” (priority 2016, dated 2020).
For part of these data: For at least one compound, name, drawing or mass did not settle the structure. Some results were stated once for a whole list of compounds, not compound by compound. Numbered stars: 1 amine (or outer) side, 2 acyl side, 3 side chain; on linkers, the order of the positions; unused ones are H or OH. Square brackets hold non-standard residues; d marks the D form. Side chains are listed from the residue outwards. Peptide text beside a SMILES is read from it. * marks the point of attachment. γGlu = O=C(O)[C@H](CCC(=O)[*:2])N[*:1]; Palmitoyl = CCCCCCCCCCCCCCCC(=O)*; Aib = CC(C)(N)C(=O)O

How the values were obtained:
[1] = system: male ApoE KO mice; assay: Anti-atherosclerotic activity in ApoE KO mice, 16 weeks minipump infusion; format: in vivo; conditions: 600 μg/kg/day (4-fold higher dose), 16 weeks s.c. minipump
From the text: The apolipoprotein E (ApoE) knockout (KO) mouse model is widely used to investigate atherosclerosis. These mice spontaneously develop atherosclerotic lesions that are morphologically similar to those observed in humans (Meir & Leitersdorf 2004, Arterioscler Thromb Vasc Biol 24: 1006-1014, Rosenfeld et al. 2000, Arterioscler Thromb Vasc Biol 20: 2587-2592).
Male ApoE KO mice (B.129P2-apoetm1Unc/J) were randomly allocated to control or treatment groups (N=15 per group); wild-type mice (C57BL6/J) received vehicle treatment and acted as a second, healthy control.
ApoE KO and wild-type mice received constant 16 weeks infusion using subcutaneous osmotic minipumps (ALZET™) filled with either vehicle (sterile acetate buffer, pH 4.5), Peptides SEQ ID NO. 6 & SEQ ID NO. 11 (150 μg/kg/day) or with Liraglutide (600 μg/kg/day). Body weight and food intake was monitored throughout the study on a weekly basis.
Blood samples for blood lipid analysis were drawn before treatment and at weeks 7 and 16 to analyze total cholesterol, low density lipoprotein (LDL) cholesterol and high density lipoprotein (HDL) cholesterol (not shown).
The aorta was dissected and aortic atherosclerotic plaque formation was measured as absolute and relative plaque area (% oilred stained area of total aortic surface area) using quantitative and automated image analysis.

[2] = system: female diabetic db/db mice; assay: Acute effects after s.c. treatment on blood glucose in non-fasting female diabetic db/db mice; format: in vivo; conditions: single 30 μg/kg s.c.
Experimental: Female healthy, lean BKS.Cg-(lean)/OlaHsd and diabetes-prone, obese BKS.Cg-+Lepr^db/+Lepr^db/OlaHsd mice were ordered group housed from Envigo RMS Inc., shipped group housed and remained group housed in shoebox caging with wood chip bedding until day 15 of the predose phase. At the study start mice were approximately 12 weeks old.
Mice were housed under vivarium conditions including a 12 h light/dark cycle (light phase 04:00 AM-4:00 PM), room temperatures between 23-26° C. and a relative humidity between 30-70%. All animals had free access to water and Purina Fomulab Diet 5008.
On predose day 9 blood glucose and body mass (approximately between 08:00-10:00 AM) as well as HbA1c measurements were performed. On day 15 of the predose phase animals were assigned to treatment groups (n=8) and to new cages to match mean HbA1c and body masses between all db/db groups. An age-matched lean group was included in the study as a healthy, lean reference.
Prior to day 1 of the dosing phase, the test article was diluted with Phosphate Buffered Saline (PBS, Gibco, without CaCl2 and MgCl2) to a concentration of 1 mg/mL and aliquots of this stock solution were stored at approximately ≤−60° C. On day 1 of the dosing phase the stock aliquot was thawed and the injected test article solution was prepared fresh by diluting it with PBS to achieve the desired concentration.
On Day 1 of the dosing phase db/db mice were either treated once with a s.c. injection of PBS-vehicle or 30 μg/kg test article. The lean reference group was treated once with a s.c. injection of PBS-vehicle. The dosing was initiated and completed between 08:00 and 10:00 AM. The applied volume was 5 ml/kg and the dose was adjusted to the most recent body mass recording of each individual.
Animals had unlimited access to water and feed during the experiment. On day 1 of the dosing phase approximately 5 μL of blood were collected via tail clips at minute −30 and 0 prior to any other inlife activities. At minute 0 mice received a s.c. dose of either PBS-vehicle or 30 μg/kg test article. Further blood samples were harvested at hour 0.25, 0.5, 1, 1.5, 2, 3, 4, 6, 8, and 24 post-dose. Glucose measurements were performed in whole blood using AlphaTRAK glucometers. If the glucose concentrations of two measurements differed by more than 20 mg/dL a third value was recorded. The Area Under the Curve (AUC) for blood glucose was calculated via the trapezoid method and for the duration of the 24 post-dose hours.
In the Figures data are depicted as means±SEM. […] A One Way Analysis of Variance and multiple comparisons (Dunnett's Method) were performed comparing the group of diabetic, obese db/db vehicle mice (n=8) with each diabetic, obese db/db test article treated mice (n=8). […] Non-diabetic, lean-vehicle group data are depicted in the Figures serving as a reference dataset for the non-obese, non-diabetic state.

SMILES	reduction of aortic plaques formation [1]	time to normalise hyperglycemia to the non-fasting blood glucose concentrations of lean reference mice [2]
CCCCCCCCCCCCCCCC(=O)N[C@@H](CCC(=O)NCCCC[C@H](NC(=O)[C@H](C)NC(=O)[C@H](C)NC(=O)[C@H](CCC(N)=O)NC(=O)CNC(=O)[C@H](CCC(=O)O)NC(=O)[C@H](CC(C)C)NC(=O)[C@H](Cc1ccc(O)cc1)NC(=O)[C@H](CO)NC(=O)[C@H](CO)NC(=O)[C@@H](NC(=O)[C@H](CC(=O)O)NC(=O)[C@H](CO)NC(=O)[C@@H](NC(=O)[C@H](Cc1ccccc1)NC(=O)[C@@H](NC(=O)CNC(=O)[C@H](CCC(=O)O)NC(=O)[C@H](C)NC(=O)[C@@H](N)Cc1cnc[nH]1)[C@@H](C)O)[C@@H](C)O)C(C)C)C(=O)N[C@@H](CCC(=O)O)C(=O)N[C@@H](Cc1ccccc1)C(=O)N[C@H](C(=O)N[C@@H](C)C(=O)N[C@@H](Cc1c[nH]c2ccccc12)C(=O)N[C@@H](CC(C)C)C(=O)N[C@H](C(=O)N[C@@H](CCCNC(=N)N)C(=O)NCC(=O)N[C@@H](CCCNC(=N)N)C(=O)NCC(=O)O)C(C)C)[C@@H](C)CC)C(=O)O [Liraglutide, HAEGTFTSDVSSYLEGQAAK(gGlu-Palm)-E-F-I-A-W-L-V-R-G-R-G-OH, reference compound]	37%	
CCCCCCCCCCCCCCCC(=O)N[C@@H](CCC(=O)N[C@@H](CCC(=O)NCCCC[C@H](NC(=O)[C@H](CC(C)C)NC(=O)[C@H](CCCCN)NC(=O)[C@H](CO)NC(=O)[C@H](CC(C)C)NC(=O)[C@H](CC(=O)O)NC(=O)[C@H](CO)NC(=O)[C@@H](NC(=O)[C@H](Cc1ccccc1)NC(=O)[C@@H](NC(=O)CNC(=O)[C@H](Cc1c[nH]cn1)NC(=O)C(C)(C)NC(=O)[C@@H](N)Cc1c[nH]cn1)[C@@H](C)O)[C@@H](C)O)C(=O)N[C@@H](CCC(=O)O)C(=O)N[C@@H](CCC(=O)O)C(=O)N[C@@H](CCC(N)=O)C(=O)N[C@@H](CCCNC(=N)N)C(=O)N[C@@H](CCC(N)=O)C(=O)N[C@@H](CCCCN)C(=O)N[C@@H](CCC(=O)O)C(=O)N[C@@H](Cc1ccccc1)C(=O)N[C@H](C(=O)N[C@@H](CCC(=O)O)C(=O)N[C@@H](Cc1c[nH]c2ccccc12)C(=O)N[C@@H](CC(C)C)C(=O)N[C@@H](CCCCN)C(=O)N[C@@H](C)C(=O)NCC(=O)NCC(=O)N1CCC[C@H]1C(=O)N1CCC[C@H]1C(=O)N[C@@H](CO)C(=O)NC(C)(C)C(=O)N[C@@H](CCCCN)C(=O)N1CCC[C@H]1C(=O)N1CCC[C@H]1C(=O)N1CCC[C@H]1C(=O)N[C@@H](CCCCN)C(N)=O)[C@@H](C)CC)C(=O)O)C(=O)O [SEQ ID NO: 8, H-Aib-H-G-T-F-T-S-D-L-S-K-L-K[gGlu-gGlu-Palm]-E-E-Q-R-Q-K-E-F-I-E-W-L-K-A-G-G-P-P-S-Aib-K-P-P-P-K-NH2]		≤ 6 h
CCCCCCCCCCCCCCCC(=O)N[C@@H](CCC(=O)N[C@@H](CCC(=O)NCCCC[C@H](NC(=O)[C@H](CC(C)C)NC(=O)[C@H](CCCCN)NC(=O)[C@H](CO)NC(=O)[C@H](CC(C)C)NC(=O)[C@H](CC(=O)O)NC(=O)[C@H](CO)NC(=O)[C@@H](NC(=O)[C@H](Cc1ccccc1)NC(=O)[C@@H](NC(=O)CNC(=O)[C@H](Cc1c[nH]cn1)NC(=O)C(C)(C)NC(=O)[C@@H](N)Cc1c[nH]cn1)[C@@H](C)O)[C@@H](C)O)C(=O)N[C@@H](CCC(=O)O)C(=O)N[C@@H](CCC(=O)O)C(=O)N[C@@H](CCC(N)=O)C(=O)N[C@@H](CCCNC(=N)N)C(=O)N[C@@H](CCC(N)=O)C(=O)N[C@@H](CCCCN)C(=O)N[C@@H](CCC(=O)O)C(=O)N[C@@H](Cc1ccccc1)C(=O)N[C@H](C(=O)N[C@@H](CCC(=O)O)C(=O)N[C@@H](Cc1c[nH]c2ccccc12)C(=O)N[C@@H](CC(C)C)C(=O)N[C@@H](CCCCN)C(=O)N[C@@H](C)C(=O)N[C@H](C)C(=O)NCC(=O)N1CCC[C@H]1C(=O)N1CCC[C@H]1C(=O)N[C@@H](CO)C(=O)NC(C)(C)C(=O)N[C@@H](CCCCN)C(=O)N1CCC[C@H]1C(=O)N1CCC[C@H]1C(=O)N1CCC[C@H]1C(=O)N[C@@H](CCCCN)C(N)=O)[C@@H](C)CC)C(=O)O)C(=O)O [SEQ ID NO: 9, H-Aib-H-G-T-F-T-S-D-L-S-K-L-K[gGlu-gGlu-Palm]-E-E-Q-R-Q-K-E-F-I-E-W-L-K-A-dAla-G-P-P-S-Aib-K-P-P-P-K-NH2] (H-H[Aib]HGTFTSDLSKLK([γGlu-γGlu-Palmitoyl])EEQRQKEFIEWLKA[dA]GPPS[Aib]KPPPK-NH2)		≤ 6 h
